Source: patent US20230183249A1, “NEW TRIAZINOINDOLE COMPOUNDS” (JANSSEN PHARMACEUTICA NV, priority 2020, published 2023)

Chains of the proteins cited; added tags and fusions are not shown.
UniProt Q96P20, whole entry: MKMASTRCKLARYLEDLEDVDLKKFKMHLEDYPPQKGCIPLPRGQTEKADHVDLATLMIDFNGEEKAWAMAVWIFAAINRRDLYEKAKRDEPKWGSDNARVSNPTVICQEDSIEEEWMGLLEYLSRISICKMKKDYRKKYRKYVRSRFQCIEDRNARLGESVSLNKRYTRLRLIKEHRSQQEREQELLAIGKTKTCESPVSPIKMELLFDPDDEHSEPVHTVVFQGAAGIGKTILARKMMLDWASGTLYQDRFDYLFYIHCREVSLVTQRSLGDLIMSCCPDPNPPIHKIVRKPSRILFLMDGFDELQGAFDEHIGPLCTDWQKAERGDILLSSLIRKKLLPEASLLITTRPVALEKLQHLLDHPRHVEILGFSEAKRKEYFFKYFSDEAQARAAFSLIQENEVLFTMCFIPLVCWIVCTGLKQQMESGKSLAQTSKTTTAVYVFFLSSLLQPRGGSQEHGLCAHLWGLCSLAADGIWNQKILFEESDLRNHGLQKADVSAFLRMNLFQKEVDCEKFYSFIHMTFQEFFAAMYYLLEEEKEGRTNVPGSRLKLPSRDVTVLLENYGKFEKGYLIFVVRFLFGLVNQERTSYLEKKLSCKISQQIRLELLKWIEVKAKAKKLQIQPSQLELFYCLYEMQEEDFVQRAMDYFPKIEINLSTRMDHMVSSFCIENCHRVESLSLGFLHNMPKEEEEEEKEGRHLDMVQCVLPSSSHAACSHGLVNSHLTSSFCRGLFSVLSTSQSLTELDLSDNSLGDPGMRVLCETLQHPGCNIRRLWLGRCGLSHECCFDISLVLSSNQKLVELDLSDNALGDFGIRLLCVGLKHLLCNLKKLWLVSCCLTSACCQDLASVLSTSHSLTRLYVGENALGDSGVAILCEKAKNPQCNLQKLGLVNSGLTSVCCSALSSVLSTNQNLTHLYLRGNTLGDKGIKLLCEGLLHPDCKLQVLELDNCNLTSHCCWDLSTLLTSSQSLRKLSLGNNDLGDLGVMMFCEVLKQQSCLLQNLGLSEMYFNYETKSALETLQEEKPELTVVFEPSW

Columns and labels:
TNF = assay: PBMC assay, TNF cytokine levels after LPS stimulation; conditions: read-out: TNF EC50; human PBMCs, 100 ng/ml LPS for 6 hrs, TNF in supernatant via MSD
NLRP3 = NLRP3 (Homo sapiens, UniProt Q96P20); assay: PBMC assay, IL-1β release after LPS stimulation; type: cell-based; conditions: read-out: IL1β IC50; human PBMCs, 100 ng/ml LPS for 6 hrs, IL-1β in supernatant via MSD

Structure (SMILES)	EC50 (TNF)	IC50 (NLRP3)
CC(C)c1nn(CC(=O)Nc2ncco2)c(=O)c2cc3ccccc3n12	> 10 µM	0.84 µM
CCc1nn(CC(=O)NC2CC2)c(=O)c2cc3ccccc3n12	> 10 µM	0.66 µM
CC(C)c1nn(CC(=O)Nc2ccc3nncn3c2)c(=O)c2cc3ccccc3n12	> 20 µM	

Structures were worked out from names or drawings and are uncertain.
